# PubChem BioAssay AID652243, Drosophila RNAi Screening Center – 2013
# Purpose: 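Fly genes required for human androgen receptor driven transcription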 (primary screen)
# System: Drosophila S2R+ cells
# Reagent: long dsRNA against Drosophila genes
# Timing: 72 h (48 h, then 24 h hormone)
# Challenge: synthetic androgen R1881 at 10 nM for 24 h
# Measured: 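Firefly light from an androgen-responsive reporter and Renilla control light per well, raw and unnormalised, for each of two replicates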
# Reading the numbers: firefly reporter light: higher = more light from androgen-responsive reporter; Renilla control light: higher = more constitutive control signal (cell number, transfection)
# Active means: 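Hit when the log firefly-to-Renilla ratio dropped or increased by a fixed fold versus the mean of GFP or LacZ controls across duplicate plates; lowering cut given as 1.5 and as 3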
# Calls: active = hit: reporter lowered or raised; inactive = no hit
# In all, the deposit lists about 24,000 reagents; below is an unselected part of those with a known target gene and a result. In the full data, 246 (1%) are marked active. 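Plates not normalised; calls are printed but the firefly/Renilla ratio behind them is not deposited; fold cut for lowering reported inconsistently.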 Raw values vary from plate to plate and are shown uncorrected. Reagents against one gene are numbered here. Names joined by + are all predicted targets of the reagent. Reagent sequences are not shown. The record does not give: the amount of reagent.
gene,dsRNA no.,"firefly reporter light, replicate 1","firefly reporter light, replicate 2","Renilla control light, replicate 1","Renilla control light, replicate 2",Outcome
e(y)2b (enhancer of yellow 2b),1,61990,72045,1.58e6,1.17e6,inactive
CG17145,1,2.43e5,2.43e5,2.01e6,1.87e6,inactive
CG5906,1,1.71e5,1.62e5,2.11e6,1.41e6,inactive
Ns1 (Nucleostemin 1),1,1.09e5,1.07e5,1.41e6,1.49e6,inactive
CG8777,1,1.12e6,1.33e6,1.15e6,1.07e6,inactive
CG12814,1,1.54e5,1.62e5,8.83e5,7.79e5,inactive
CG12814,2,95502,92062,2.07e6,1.35e6,inactive
CG1750,1,85555,58305,7.88e5,4.03e5,inactive
Tfb4 (Transcription factor B4),1,67797,73256,6.73e5,6.44e5,inactive
Tfb4 (Transcription factor B4),2,4.52e5,4.46e5,6.31e5,4.10e5,inactive
CG7653,1,1.43e5,1.29e5,1.70e6,1.56e6,inactive
side-II (sidestep II),1,2.24e5,2.77e5,2.01e6,2.47e6,inactive
side-II (sidestep II),2,6.44e5,7.22e5,2.34e6,3.05e6,inactive
side-II (sidestep II),3,3.85e5,7.14e5,8.62e5,1.19e6,inactive
side-II (sidestep II),4,93501,1.67e5,3.05e5,6.16e5,inactive
side-II (sidestep II),5,5.83e5,6.42e5,5.50e5,6.45e5,inactive
ND-49L (NADH dehydrogenase (ubiquinone) 49 kDa subunit-like),1,1.86e5,1.90e5,2.08e6,2.04e6,inactive
ND-49L (NADH dehydrogenase (ubiquinone) 49 kDa subunit-like),2,9.00e5,5.46e5,2.62e6,1.77e6,inactive
CG13855,1,2.79e5,3.20e5,3.42e6,2.89e6,inactive
CG13855,2,2.73e5,2.87e5,4.08e5,6.81e5,inactive
barr (barren),1,1.31e5,1.12e5,1.01e6,5.46e5,inactive
CG7115,1,2.83e5,2.84e5,2.14e6,1.77e6,inactive
CG7115,2,5.06e5,4.27e5,8.27e5,7.82e5,inactive
CG7115,3,,,,,inactive
Ppox (Protoporphyrinogen oxidase),1,2.23e5,2.38e5,2.47e6,2.53e6,inactive
CG14137,1,2.54e5,1.80e5,2.57e6,1.81e6,inactive
CG14137,2,7.56e5,7.85e5,1.69e6,1.53e6,inactive
CG13360,1,7.10e5,1.04e6,1.89e6,2.35e6,inactive
CG13360,2,4.53e5,8.26e5,1.09e6,1.79e6,inactive
Pfdn5 (Prefoldin 5),1,1.16e5,87305,1.09e6,1.03e6,inactive
ppk12 (pickpocket 12),1,2.21e5,2.25e5,1.19e6,1.13e6,inactive
lncRNA:CR40053 (long non-coding RNA:CR40053),1,5.60e5,4.83e5,5.78e5,5.07e5,inactive
lncRNA:CR40053 (long non-coding RNA:CR40053),2,2.21e5,5.16e5,4.37e5,9.39e5,inactive
lncRNA:CR40053 (long non-coding RNA:CR40053),3,3.27e5,3.41e5,1.26e6,1.39e6,inactive
Rcd4 (Reduction in Cnn dots 4),1,2.34e5,91690,1.67e6,9.13e5,inactive
CG8745,1,7.68e5,4.50e5,6.73e5,8.84e5,inactive
CG8745,2,2.95e5,2.92e5,3.80e6,3.19e6,inactive
CG8745,3,1.08e6,7.37e5,1.11e6,8.27e5,inactive
CG9902,1,4.25e5,3.22e5,2.32e6,1.85e6,inactive
CG9902,2,1.08e6,1.12e6,9.31e5,1.17e6,inactive
CG5245,1,80160,60212,9.59e5,7.45e5,inactive
CG5245,2,5.79e5,4.32e5,1.14e6,1.14e6,inactive
CG7607,1,3.72e5,3.47e5,3.32e6,3.53e6,inactive
ppk19 (pickpocket 19),1,1.83e5,1.75e5,2.01e6,2.27e6,inactive
bbg (big bang),1,2.48e5,2.39e5,3.15e6,3.03e6,inactive
bbg (big bang),2,99084,84382,1.50e6,1.21e6,inactive
bbg (big bang),3,3.79e5,4.45e5,8.76e5,1.03e6,inactive
bbg (big bang),4,4.34e5,3.75e5,3.69e5,3.98e5,inactive
Obp99a (Odorant-binding protein 99a),1,1.07e5,2.12e5,1.20e6,2.21e6,inactive
stck (steamer duck),1,52677,59224,1.68e6,1.51e6,inactive
"Gorab (Golgin, RAB6 interacting)",1,1.63e5,90227,1.13e6,7.92e5,inactive
"Gorab (Golgin, RAB6 interacting)",2,1.25e6,1.20e6,1.24e6,1.52e6,inactive
CG7953,1,9.08e5,1.01e6,1.73e6,1.70e6,inactive
Cam (Calmodulin),1,5.25e5,8.04e5,8.94e5,1.45e6,inactive
Cam (Calmodulin),2,5.18e5,4.03e5,2.52e6,1.50e6,inactive
Cen (Centrocortin),1,1.01e6,1.33e6,1.29e6,2.00e6,inactive
deltaTry + CG30031 + CG30025 + 1 more,1,2.39e5,2.45e5,4.79e5,6.98e5,inactive
Rsph1 (Radial spoke head protein 1),1,1.41e5,1.66e5,1.49e6,1.46e6,inactive
Rsph1 (Radial spoke head protein 1),2,2.98e5,2.48e5,4.12e5,3.90e5,inactive
